Reference: PubChem BioAssay AID1224830 (NIAID, 2016)

Purpose: 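Genes whose knock-down alters the TNF-alpha reporter response to LPS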 (primary screen)
Cell system: human THP-1 monocytic leukaemia cells, TNF dual-luciferase reporter clone, PMA-differentiated to macrophage-like cells
Knock-down reagent: siRNA pool against human genes, 50 nM
Duration: LPS for 4 h, given about 3 days after siRNA transfection
Treatment: bacterial LPS (TLR4 ligand), 10 ng/ml
Read-out: 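Ratio of firefly to renilla light, scaled to the plate median and expressed as a robust z-score per replicate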
Direction: TNF reporter robust z-score: higher = stronger TNF reporter response to LPS
Hit rule: 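a well is active when its z-score exceeds 2.8 or falls below -1.5; control wells carry no call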
Here is one part, drawn at random, of about 18,000 deposited reagents. About 2,900 of all reagents (16%) were called active. 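Calls are made per well; low scores hint the gene aids the LPS response, high scores that it dampens it.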 Unmarked entries are inactive. Repeated entries: four replicate wells of each siRNA pool. Reagent sequences are not shown.

target,PubChem SID,TNF reporter robust z-score
SH2D4B,SID315464445,0.04
SH2D4B,SID315464445,-0.01
SH2D4B,SID315464445,0.33
MORN1,SID315459555,-0.08
MORN1,SID315459555,-0.22
MORN1,SID315459555,-0.38
MORN1,SID315459555,0.82
WDFY1,SID315458489,-0.06
WDFY1,SID315458489,-0.24
WDFY1,SID315458489,-0.21
WDFY1,SID315458489,-0.54
PLEKHA6,SID315454836,-0.09
PLEKHA6,SID315454836,1.32
PLEKHA6,SID315454836,-0.04
PLEKHA6,SID315454836,1.81
VMAC,SID315464751,2.14
VMAC,SID315464751,2.91 (active)
VMAC,SID315464751,1.97
VMAC,SID315464751,2.77
GBA3,SID315458581,0.05
GBA3,SID315458581,-0.33
GBA3,SID315458581,-0.08
GBA3,SID315458581,0.16
UFM1,SID315456786,0.84
UFM1,SID315456786,0.72
UFM1,SID315456786,1.01
UFM1,SID315456786,0.64
MRPS21,SID315457013,0.62
MRPS21,SID315457013,1.37
MRPS21,SID315457013,0.81
MRPS21,SID315457013,-0.84
F12,SID315448610,-1.46
F12,SID315448610,-0.04
F12,SID315448610,-0.45
F12,SID315448610,0.83
MYH8,SID315450110,1.48
MYH8,SID315450110,1.79
MYH8,SID315450110,1.26
MYH8,SID315450110,1.29
ARAP2,SID315461399,2.42
ARAP2,SID315461399,2.22
ARAP2,SID315461399,0.71
ARAP2,SID315461399,1.21
FOXA1,SID315449242,-1.21
FOXA1,SID315449242,0.08
FOXA1,SID315449242,-0.84
FOXA1,SID315449242,0.36
PI4KB,SID315450596,-0.27
PI4KB,SID315450596,-0.54
PI4KB,SID315450596,-1.21
PI4KB,SID315450596,-0.36
SLAMF6,SID315461259,1.49
SLAMF6,SID315461259,1.51
SLAMF6,SID315461259,1.66
SLAMF6,SID315461259,3.6 (active)
CIROZ,SID315462378,-0.09
CIROZ,SID315462378,-0.72
CIROZ,SID315462378,-0.48
CIROZ,SID315462378,0.22
E2F1,SID315448414,0.22
E2F1,SID315448414,0.83
E2F1,SID315448414,0.75
E2F1,SID315448414,1.16
PYCR3,SID315459103,-1.4
PYCR3,SID315459103,-1.71 (active)
PYCR3,SID315459103,-1.3
PYCR3,SID315459103,-1.26
TMEM65,SID315462621,0.12
TMEM65,SID315462621,-0.03
TMEM65,SID315462621,0.19
TMEM65,SID315462621,-0.35
POGLUT2,SID315459190,1.08
POGLUT2,SID315459190,0.01
POGLUT2,SID315459190,-0.74
POGLUT2,SID315459190,1.16
ADH6,SID315447204,1.04
ADH6,SID315447204,2
ADH6,SID315447204,0.73
ADH6,SID315447204,2.55
BPIFA2,SID315462115,-0.93
BPIFA2,SID315462115,-0.34
BPIFA2,SID315462115,-0.8
BPIFA2,SID315462115,-0.38
TUBB2A,SID315452009,0.95
TUBB2A,SID315452009,3.47 (active)
TUBB2A,SID315452009,3.7 (active)
TUBB2A,SID315452009,1.81
NFIB,SID315450228,-0.24
NFIB,SID315450228,-0.15
NFIB,SID315450228,-0.05
NFIB,SID315450228,0.9
DOK1,SID315448356,0.64
DOK1,SID315448356,-0.31
DOK1,SID315448356,-0.29
DOK1,SID315448356,0.44
MEDAG,SID315460587,-1.63 (active)
MEDAG,SID315460587,-1.17
MEDAG,SID315460587,-1.32
MALL,SID315452326,1.14
MALL,SID315452326,1.47
MALL,SID315452326,1.1
MALL,SID315452326,2.62
SKP2,SID315451442,0.08
SKP2,SID315451442,-0.87
SKP2,SID315451442,-0.67
SKP2,SID315451442,-0.1
SGK3,SID315455405,-0.83
SGK3,SID315455405,0.68
SGK3,SID315455405,-0.15
SGK3,SID315455405,0.29

Active calls, of those listed so far:
target,PubChem SID,TNF reporter robust z-score
VMAC,SID315464751,2.91 (active)
SLAMF6,SID315461259,3.6 (active)
PYCR3,SID315459103,-1.71 (active)
TUBB2A,SID315452009,3.47 (active)
TUBB2A,SID315452009,3.7 (active)
MEDAG,SID315460587,-1.63 (active)
